Data: paper PMC10144058, “New Hybrid Scaffolds Based on 5-FU/Curcumin: Synthesis, Cytotoxic, Antiproliferative and Pro-Apoptotic Effect” (Pharmaceutics, 2023)

How the values were obtained:
SW480 cells = experiment: Cell viability, sulforhodamine B (SRB) assay; format: cell-based, human; settings: for SI CHO-K1/SW480: IC50 CHO-K1 relative to IC50 SW480; for SI HaCaT/SW480: IC50 HaCaT relative to IC50 SW480
Protocol: (§1) SW480 (colon adenocarcinoma) and SW620 (derived metastatic) malignant cell lines, and the non-malignant lines HaCaT (human keratinocytes) and CHO-K1 (Chinese Hamster Ovary), were obtained from the European Collection of Authenticated Cell Cultures (ECACC, Porton Down, Salisbury, UK). The cells were maintained in Dulbecco’s Modified Eagle’s Medium (DMEM), supplemented with 10% equine serum previously inactivated at 56 °C, 1% penicillin/streptomycin, and 1% non-essential amino acids, and incubated at 37 °C in an atmosphere with 5% CO2. To carry out the experiments, the serum was diluted to 3% and additionally supplemented with […] insulin, […] transferrin, and 5 ng/mL selenium. Cells were used for experimentation when they reached 80–90% confluence, using a 1X trypsin enzymatic disintegration method. To avoid contamination by Mycoplasma spp., cell cultures were periodically analyzed by polymerase chain reaction (PCR).
(§2) Cell viability was evaluated with a sulforhodamine B (SRB) assay. This technique provides an index of protein contents in living and adherent cells, whose optical density can be related to cell concentration. Initially, 20,000 cells were seeded per well in 96-well culture plates. An initial adherence period of 24 h was performed at 37 °C, 5% CO2, and after this, the medium was replaced by another that contained the hybrid compounds in different concentrations. Then, the cells were left incubating for 24 and 48 h under the same conditions previously described. After the respective incubation times, the cells were fixed with trichloroacetic acid (50% v/v) for 1 h at 4 °C and stained with 0.4% (p/v) of SRB. Subsequently, washings with 1% acetic acid were carried out to eliminate possible nonspecific bindings, and after solubilization with 10 mM Tris-base, the absorbance was read at 492 nm in a microplate reader (Mindray MR-96A). All the experiments were carried out in triplicate.

SW620 cells = experiment: Cell viability, sulforhodamine B (SRB) assay; format: cell-based, human; settings: for SI CHO-K1/SW620: IC50 CHO-K1 relative to IC50 SW620; for SI HaCaT/SW620: IC50 HaCaT relative to IC50 SW620
Protocol: as §1, §2

SMILES	SI CHO-K1/SW480 (SW480 cells; 24 h)	SI HaCaT/SW480 (SW480 cells; 24 h)	SI CHO-K1/SW480 (SW480 cells; 48 h)	SI HaCaT/SW480 (SW480 cells; 48 h)	SI CHO-K1/SW620 (SW620 cells; 24 h)	SI HaCaT/SW620 (SW620 cells; 24 h)	SI CHO-K1/SW620 (SW620 cells; 48 h)	SI HaCaT/SW620 (SW620 cells; 48 h)
COc1cc(/C=C/C(=O)c2ccc(OCCCCn3cc(Cn4cc(F)c(=O)[nH]c4=O)nn3)cc2)ccc1O [Compound 6c, (E)-5-fluoro-1-((1-(4-(4-(3-(4-hydroxy-3-methoxyphenyl)acryloyl)phenoxy)butyl)-1H-1,2,3-triazol-4-yl)methyl)pyrimidine-2,4(1H,3H)-dione]	0.86	1.49	1.86	1.17	0.31	0.54	1.09	0.68
COc1cc(/C=C/C(=O)CC(=O)/C=C/c2ccc(O)c(OC)c2)ccc1O [Curcumin, curcumin]	0.24	>1	0.40	0.32	0.12	–	1.63	1.30
O=c1[nH]cc(F)c(=O)[nH]1 [Compound 5-FU, 5-fluorouracil, reference compound]	0.35	–	0.99	0.68	0.60	–	0.96	0.66
COc1cc(/C=C/C(=O)c2ccc(OCCCn3cc(Cn4cc(F)c(=O)[nH]c4=O)nn3)cc2)ccc1O [Compound 6b, (E)-5-fluoro-1-((1-(3-(4-(3-(4-hydroxy-3-methoxyphenyl)acryloyl)phenoxy)propyl)-1H-1,2,3-triazol-4-yl)methyl)pyrimidine-2,4(1H,3H)-dione]	1.06	1.20	2.71	1.07	0.57	0.64	1.38	0.55
COc1cc(/C=C/C(=O)c2ccc(OCCCCCCCCn3cc(Cn4cc(F)c(=O)[nH]c4=O)nn3)cc2)ccc1O [Compound 6f, (E)-5-fluoro-1-((1-(8-(4-(3-(4-hydroxy-3-methoxyphenyl)acryloyl)phenoxy)octyl)-1H-1,2,3-triazol-4-yl)methyl)pyrimidine-2,4(1H,3H)-dione]	–	–	>3	1.18	–	–	–	<1
COc1cc(/C=C/C(=O)c2ccc(OCCn3cc(Cn4cc(F)c(=O)[nH]c4=O)nn3)cc2)ccc1O [Compound 6a, (E)-5-fluoro-1-((1-(2-(4-(3-(4-hydroxy-3-methoxyphenyl)acryloyl)phenoxy)ethyl)-1H-1,2,3-triazol-4-yl)methyl)pyrimidine-2,4(1H,3H)-dione]	1.10	0.95	4.24	1.61	<1	<1	1.63	0.62
COc1cc(/C=C/C(=O)c2ccc(OCCCCCCn3cc(Cn4cc(F)c(=O)[nH]c4=O)nn3)cc2)ccc1O [Compound 6e, (E)-5-fluoro-1-((1-(6-(4-(3-(4-hydroxy-3-methoxyphenyl)acryloyl)phenoxy)hexyl)-1H-1,2,3-triazol-4-yl)methyl)pyrimidine-2,4(1H,3H)-dione]	0.87	1.98	1.90	1.08	<1	<1	–	1.36
COc1cc(/C=C/C(=O)c2ccc(OCCCCCn3cc(Cn4cc(F)c(=O)[nH]c4=O)nn3)cc2)ccc1O [Compound 6d, (E)-5-fluoro-1-((1-(5-(4-(3-(4-hydroxy-3-methoxyphenyl)acryloyl)phenoxy)pentyl)-1H-1,2,3-triazol-4-yl)methyl)pyrimidine-2,4(1H,3H)-dione]	0.79	2.71	11.56	8.36	0.34	1.15	3.74	2.71
